Measured values as given in PubChem BioAssay AID1487 (National Center for Advancing Translational Sciences (NCATS), 2009).
Some of the results follow. Further columns of the screen follow, without active or inactive calls. Most of these compounds were active or inconclusive in the main read-out, so they are no random draw. Potencies come from curve fits of mixed quality, noted in brackets.

Assay: qHTS Assay for Modulators of Lamin A Splicing
Details: HeLa LMNA splicing GFP/RFP minigene ratio, 48 h
Procedure, shortened: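 S3 HeLa cells stably expressing lamin A-EGFP splicing minigene plus DsRed2, 600 cells/well, 48 h compound exposure at 37C. Laser-scanning cytometry; analysed as GFP (500-530 nm)/RFP (575-640 nm) total intensity ratio; 0.5% DMSO vehicle.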

[1] = measured here: RFP viability control channel
[2] = measured here: GFP splicing reporter channel

O=C(Cn1c(SCC(=O)Nc2ccc(F)cc2)nc2ccccc21)NCc1ccccc1Cl
AC50 [1]: 35.5 µM [falling, single point]

COc1ccc(-c2cc3nc(C)c(CCC(=O)N4CCN(c5ccccn5)CC4)c(C)n3n2)c(OC)c1
AC50 [1]: 0.891 µM [falling, full curve, poor fit]

CC(C)(C)n1nc2c(c1NC(=O)c1ccc(S(=O)(=O)N3CCCC3)cc1)CSC2
AC50 [2]: 10 µM [rising, partial curve, poor fit]

O=C(/C=C\c1ccco1)Nc1cc([N+](=O)[O-])ccc1F
AC50 [2]: 0.00447 µM [falling, full curve, poor fit]

Cc1cccc(OCCCSc2nc3ccccc3[nH]2)c1
AC50 [2]: 0.00447 µM [rising, full curve, poor fit]
AC50 [1]: 10 µM [rising, partial curve]

C[C@@H](Nc1nc(-c2ccccc2)nc2c1oc1ccccc12)C(=O)O
AC50 [1]: 22.4 µM [rising, single point]

CCCCCCc1cc2cc(-c3nnc(-c4ccccc4O)o3)c(=O)oc2cc1O
AC50 [1]: 12.6 µM [rising, single point]

O=C(N/N=C/c1ccccn1)c1cc(-c2ccncc2)nc2ccccc12
AC50 [2]: 14.1 µM [rising, single point]
AC50 [1]: 25.1 µM [rising, single point]

COc1cc(OC)cc(C(=O)Nc2cc(-c3nc4cccnc4s3)ccc2C)c1
AC50 [1]: 12.6 µM [rising, partial curve, poor fit]

CCC(C(=O)Nc1ccc(C(=O)OC)cc1)n1nc(-c2ccc(C)c(C)c2)ccc1=O (stereo unspecified)
AC50 [2]: 10 µM [falling, partial curve, poor fit]

Nc1nc(SCC(=O)NC2CCCc3ccccc32)n[nH]1 (stereo unspecified)
AC50 [1]: 0.158 µM [rising, partial curve]

COc1ccc(F)cc1S(=O)(=O)n1nnc2ccccc21
AC50 [2]: 4.47 µM [rising, single point]

c1coc(CSCc2cn3cccnc3n2)c1
AC50 [1]: 11.2 µM [rising, single point]

COc1ccc2c(c1OC)C(=O)OC2C/C(=N\NC(N)=O)c1ccccc1 (stereo unspecified)
AC50 [1]: 31.6 µM [rising, single point]

CC(O)c1cccc(NC(=O)Cc2cccc3ccccc23)c1 (stereo unspecified)
AC50 [2]: 25.1 µM [falling, partial curve]
AC50 [1]: 0.0447 µM [falling, full curve, poor fit]

Cc1ccccc1CS(=O)(=O)c1cn(CC(=O)N2CCC(C)CC2)c2ccccc12
AC50 [1]: 0.00794 µM [rising, full curve, poor fit]

COc1ccc(S(=O)(=O)Nc2ccc(O)c3ccccc23)cc1
AC50 [2]: 35.5 µM [falling, single point]
AC50 [1]: 28.2 µM [falling, single point]

CCOc1ccc2nc(C)cc(Nc3cccc([N+](=O)[O-])c3)c2c1
AC50 [2]: 14.1 µM [rising, partial curve, poor fit]
AC50 [1]: 25.1 µM [rising, single point]

COC(=O)c1c(NC(=O)C2COc3ccccc3O2)sc2c1CCN(Cc1ccccc1)C2 (stereo unspecified)
AC50 [1]: 8.91 µM [rising, partial curve, poor fit]

CCC(C(=O)NCc1cccnc1)c1ccccc1 (stereo unspecified)
AC50 [2]: 35.5 µM [rising, single point]

CC(C)COC(=O)c1nnsc1NC(=O)Nc1ccccc1
AC50 [1]: 5.01 µM [rising, partial curve, poor fit]

CCc1nc(NCc2cccnc2)c2oc3ccccc3c2n1
AC50 [2]: 17.8 µM [rising, partial curve]
AC50 [1]: 22.4 µM [rising, partial curve]

Cc1cc(C)c2c(c1)cc(C)c1nnc(SCC(=O)Nc3cc(C)on3)n12
AC50 [1]: 31.6 µM [rising, single point]

C[C@@H]1CCc2cc(F)cc3c(=O)c(C(=O)O)cn1c23
AC50 [2]: 12.6 µM [falling, partial curve, poor fit]

CCc1ccc(S(=O)(=O)N(C(=O)c2ccncc2)c2ccc(OC(=O)c3ccncc3)cc2)cc1
AC50 [2]: 12.6 µM [rising, partial curve, poor fit]
AC50 [1]: 25.1 µM [rising, partial curve, poor fit]

COc1ccc(/C=C/C(=O)Nc2ccc(-c3nnc4n3CCCCC4)cc2)c(OC)c1
AC50 [1]: 35.5 µM [rising, single point]

O=C(OCCN1CCCCC1)c1c[nH]c2ccccc12
AC50 [2]: 0.0708 µM [rising, full curve, poor fit]

COc1ccc(N(CC(=O)NCc2ccc3c(c2)OCO3)C(=O)CCC(=O)Nc2ccccn2)cc1
AC50 [2]: 0.0631 µM [rising, full curve, poor fit]
AC50 [1]: 2.24 µM [rising, single point]

O=C(NCC(c1cccnc1)N1CCc2ccccc21)c1ccc(F)cc1 (stereo unspecified)
AC50 [2]: 5.62 µM [falling, partial curve]

O=C(/C=C/c1ccc(Cl)cc1)NC(=S)Nc1ccc(NC(=O)c2ccco2)cc1
AC50 [2]: 0.891 µM [rising, full curve]
AC50 [1]: 1.78 µM [rising, full curve]

S=c1[nH]nc(COc2ccccc2)n1Cc1ccccc1
AC50 [2]: 35.5 µM [rising, single point]
AC50 [1]: 35.5 µM [rising, single point]

COC(=O)c1ccc(CNC(=O)COC(=O)C23CC4CC(CC(C4)C2)C3)cc1
AC50 [1]: 11.2 µM [rising, partial curve]

Cc1nn(-c2ccccc2)c(Cl)c1/C=N/Nc1nc2ccccc2n1C
AC50 [2]: 31.6 µM [rising, single point]
AC50 [1]: 35.5 µM [rising, single point]

Cc1ccc(CNCC(O)(c2ccc(F)cc2)c2ccc(F)cc2)cc1
AC50 [2]: 11.2 µM [falling, single point]
AC50 [1]: 11.2 µM [falling, partial curve, poor fit]

O=S(=O)(c1cccc(S(=O)(=O)N2CCC(n3nnc4ccccc43)CC2)c1)N1CCCCC1
AC50 [1]: 17.8 µM [rising, partial curve]

COC(=O)c1cc2sccc2n1CC(=O)N(C)c1ccccc1
AC50 [2]: 10 µM [falling, partial curve]
AC50 [1]: 10 µM [falling, partial curve]

CCOC(=O)c1[nH]c(C)c(C(=O)c2cc(F)ccc2F)c1C
AC50 [2]: 35.5 µM [falling, single point]
AC50 [1]: 0.447 µM [rising, single point]

CCOC(=O)c1sc(NC(=O)c2cccnc2)c(C#N)c1C
AC50 [1]: 10 µM [rising, partial curve]

CC(C)(C)OC(=O)NCCc1nnc(SCc2ccc(Cl)cc2)o1
AC50 [1]: 15.8 µM [rising, single point]

CC(NS(=O)(=O)c1ccccc1)C(c1cccs1)N1CCN(c2ccccc2)CC1 (stereo unspecified)
AC50 [1]: 22.4 µM [rising, partial curve]

CCOCCN1CCN(c2c(C)c(C)nc3cc(-c4cc(OC)cc(OC)c4)nn23)CC1
AC50 [1]: 17.8 µM [rising, single point]

CC1CCc2sc(C(=O)Nc3ccc(N4CCOCC4)cc3)cc2C1 (stereo unspecified)
AC50 [1]: 22.4 µM [rising, single point]

CCCNC1=C(N(C(C)=O)c2cccc(F)c2)C(=O)c2ccccc2C1=O
AC50 [2]: 2.82 µM [falling, full curve]
AC50 [1]: 15.8 µM [falling, partial curve]

CC(C(=O)NCc1ccccc1)N1C(=O)C2CC=C(Cl)CC2C1=O (stereo unspecified)
AC50 [2]: 35.5 µM [rising, single point]
AC50 [1]: 22.4 µM [rising, single point]

O=c1c2ccccc2cnn1Cc1n[nH]c(=S)n1-c1ccc(F)cc1
AC50 [2]: 0.00501 µM [falling, full curve, poor fit]
AC50 [1]: 0.00316 µM [falling, full curve, poor fit]

Nc1ccc2oc(-c3ccccc3Cl)cc(=O)c2c1O
AC50 [2]: 2.82 µM [falling, partial curve]
AC50 [1]: 17.8 µM [falling, partial curve]

CC(C)Cc1c2c([nH]c(=S)c1C#N)CCCC2
AC50 [2]: 7.94 µM [rising, partial curve]
AC50 [1]: 7.08 µM [rising, full curve, poor fit]

NS(=O)(=O)c1ccc(CCNc2nc(CN3CCCCC3)nc3sc4c(c23)CCC4)cc1
AC50 [1]: 31.6 µM [rising, single point]

CCCOc1ccc(-c2cnc(SCC(N)=O)nc2N)cc1
AC50 [2]: 22.4 µM [rising, single point]
AC50 [1]: 35.5 µM [rising, single point]

Oc1ccc(Br)cc1-c1nc2cnccn2c1NC1CCCC1
AC50 [1]: 35.5 µM [rising, single point]

CCCOc1ccc(C(=O)NCc2ccco2)cc1
AC50 [1]: 10 µM [rising, partial curve, poor fit]

Cc1ccc(C)c(OCCn2cc(/C=C(\C#N)C(=O)NCC3CCCO3)c3ccccc32)c1 (stereo unspecified)
AC50 [2]: 35.5 µM [rising, single point]

O=C(CC1N=C2c3ccccc3N=C(SCc3cccc(Cl)c3)N2C1=O)NCCc1ccccc1 (stereo unspecified)
AC50 [2]: 8.91 µM [falling, partial curve]
AC50 [1]: 4.47 µM [falling, partial curve]

CCCS(=O)(=O)c1nnnn1-c1cccc(OC)c1
AC50 [1]: 7.08 µM [falling, partial curve]

O=C(O)c1ccc(Oc2c(C(F)(F)F)oc3cc(O)ccc3c2=O)cc1
AC50 [1]: 31.6 µM [rising, single point]
